Source: publication PMC4884984, “Identification of approved and investigational drugs that inhibit hypoxia-inducible factor-1 signaling” (Oncotarget, 2016)
pIC50: −log10 of the molar value.

System: HIF-1α–NanoLuc
Test: HIF-1α–NanoLuc reporter gene assay (qHTS primary and confirmatory screens)
Type: cell-based
Conditions: Homo sapiens; Table S1; primary screen, hypoxia 1% O2, 18 h

pIC50: 5.82
Compound: O=C(CCCCCCC(=O)Nc1ccccc1)NO [Vorinostat]
